Source: US20220380408A1, “COMPOSITIONS AND METHODS FOR INHIBITING NEOINTIMAL FORMATION” (University of Virginia Patent Foundation, priority 2019, published 2022)
Results are given in words; binding and its absence hold for the method and conditions named. Some results given as binding are weak or reduced against the parent protein; the word gives no strength.

The chains behind the UniProt entries cited, without tags or fusion partners.
UniProt P24864: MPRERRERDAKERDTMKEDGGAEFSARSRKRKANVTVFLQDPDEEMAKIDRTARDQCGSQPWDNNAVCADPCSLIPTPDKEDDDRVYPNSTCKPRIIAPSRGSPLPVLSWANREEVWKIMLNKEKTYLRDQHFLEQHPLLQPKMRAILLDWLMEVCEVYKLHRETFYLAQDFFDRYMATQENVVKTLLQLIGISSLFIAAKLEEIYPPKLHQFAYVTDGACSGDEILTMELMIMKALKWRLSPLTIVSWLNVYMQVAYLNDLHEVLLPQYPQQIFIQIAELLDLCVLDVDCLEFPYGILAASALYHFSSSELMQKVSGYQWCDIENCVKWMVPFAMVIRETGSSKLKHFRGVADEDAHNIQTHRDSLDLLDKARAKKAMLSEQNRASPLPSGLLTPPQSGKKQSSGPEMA

B1: Peptide 1 (…), Cx43-CT array peptide (peptide)
peptide: QGPLGVKDRVKGRSDPYHATTGPLD
B2: Peptide 3 (…), Cx43-CT array peptide (peptide)
peptide: APLDPMDPPGYKLVTGDRNNSSCRN
B3: …, minimum Cx43 sequence of the truncation array (peptide)
peptide: DPSKDCGDPKYAY

What was measured:
cyclin E [1] = target: T1, cyclin E (Homo sapiens, UniProt P24864); assay: peptide array on nitrocellulose probed with recombinant cyclin E, anti-cyclin E antibody, ECL
cyclin E [2] = target: T1, cyclin E; assay: truncation peptide array probed with recombinant cyclin E

| Binder | binding (cyclin E [1]) | binding (cyclin E [2]) |
| --- | --- | --- |
| B1 | binds | – |
| B2 | binds | – |
| B3 | – | binds |
